Results taken from PMC7042329.
These are yes or no findings as the source states them, for the method shown. In cells and extracts the contact can be indirect. Some entries that bind do so weakly or less than the wild type.

Sequences of proteins named here, by UniProt entry; tags and fusion partners are left off.
UniProt Q8ND76: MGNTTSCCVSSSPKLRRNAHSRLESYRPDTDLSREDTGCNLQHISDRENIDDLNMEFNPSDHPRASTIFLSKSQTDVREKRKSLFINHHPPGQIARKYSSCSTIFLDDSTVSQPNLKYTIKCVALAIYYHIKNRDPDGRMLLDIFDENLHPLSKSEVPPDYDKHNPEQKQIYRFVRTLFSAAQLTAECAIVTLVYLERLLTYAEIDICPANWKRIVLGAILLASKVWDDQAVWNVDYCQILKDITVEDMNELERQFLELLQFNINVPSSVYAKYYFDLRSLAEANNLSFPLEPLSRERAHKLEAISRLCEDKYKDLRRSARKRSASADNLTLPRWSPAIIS
UniProt O94921: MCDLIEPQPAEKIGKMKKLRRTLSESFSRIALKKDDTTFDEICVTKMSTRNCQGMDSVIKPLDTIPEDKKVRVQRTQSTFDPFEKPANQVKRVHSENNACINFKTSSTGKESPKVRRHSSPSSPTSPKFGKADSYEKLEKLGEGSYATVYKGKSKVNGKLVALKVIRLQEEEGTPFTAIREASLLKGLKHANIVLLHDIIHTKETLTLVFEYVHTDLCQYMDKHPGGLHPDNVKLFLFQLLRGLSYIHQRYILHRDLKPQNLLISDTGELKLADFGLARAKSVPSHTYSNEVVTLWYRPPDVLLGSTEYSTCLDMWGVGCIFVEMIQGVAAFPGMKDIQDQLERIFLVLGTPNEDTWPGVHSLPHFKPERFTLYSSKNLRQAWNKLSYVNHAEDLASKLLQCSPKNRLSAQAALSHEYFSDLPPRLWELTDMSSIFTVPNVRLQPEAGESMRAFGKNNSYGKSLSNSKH
UniProt Q96Q40: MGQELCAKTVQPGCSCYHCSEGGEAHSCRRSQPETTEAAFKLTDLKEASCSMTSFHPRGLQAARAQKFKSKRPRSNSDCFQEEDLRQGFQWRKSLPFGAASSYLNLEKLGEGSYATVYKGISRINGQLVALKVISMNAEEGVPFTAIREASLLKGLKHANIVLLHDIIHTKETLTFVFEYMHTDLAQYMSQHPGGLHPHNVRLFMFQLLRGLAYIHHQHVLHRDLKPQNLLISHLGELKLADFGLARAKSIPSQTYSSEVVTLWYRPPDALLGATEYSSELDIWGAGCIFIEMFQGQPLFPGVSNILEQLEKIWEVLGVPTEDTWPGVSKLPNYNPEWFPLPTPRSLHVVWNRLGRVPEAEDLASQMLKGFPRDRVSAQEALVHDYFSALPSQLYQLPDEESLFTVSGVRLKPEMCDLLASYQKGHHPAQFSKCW

Molecular target: Cyclin Y-Flag (human) (UniProt Q8ND76)
Experiment: co-IP; HeLa cells transfected with Cyclin Y-Flag, with or without GFP-tagged CDK; with or without 0.5 mM AICAR/50 µM A769662 for 1 h; lysate in Frackelton buffer, anti-FLAG M2 beads 2 h at 4 °C, three washes, immunoblot

Row | Substance | binding
1 | GFP-tagged CDK14 (from UniProt O94921 1-469) (enzyme) | binds
2 | GFP-tagged CDK15 (from UniProt Q96Q40 1-435) (enzyme) | binds
